Test results: patent publication US8841077B2, “Biomarkers for amyotrophic lateral sclerosis and methods using the same” (Massachusetts General Hospital, priority 2006, dated 2014)

Assay: Metabolomic profiling (GC-MS/LC-MS) of CSF samples, ALS subjects vs control subjects (Example 1; Tables 3, 4)
Format: in vivo, human
Conditions: CSF; ALS mean as compared to control mean; T-tests of ALS vs. Controls

Structure (SMILES)	% change in ALS
CC(=O)N[C@H](C(=O)O)C(C)C [N-acetyl-L-valine - 35, N-acetyl-L-valine]	4%
O=C(O)[C@@H]1CCCN1 [Praline - 35, Praline]	156%
N[C@@H](CO)C(=O)O [Serine - 9, Serine]	−11%
OC[C@@H](O)[C@H](O)[C@@H](O)CO [Xylitol - 35, Xylitol]	8%
Nc1ccn([C@@H]2O[C@H](CO)[C@@H](O)[C@H]2O)c(=O)n1 [Cytidine - 35, Cytidine]	−9%
CC(C)[C@H](N)C(=O)O [Valine - 9, Valine]	34%
NC(=O)NC1NC(=O)NC1=O (stereo not shown) [Allantoin - 35, Allantoin]	7%
O=C(O)/C=C/C(=O)O [Fumaric acid - 9, Fumaric acid]	7%
CCC(N)C(=O)O (stereo not shown) [2-amino-butyrate - 9, 2-amino-butyrate]	−65%
O=C(O)CC(O)(CC(=O)O)C(=O)O [Citric acid - 9, Citric acid]	12%
O=C(O)C(O)Cc1ccc(O)cc1 (stereo not drawn) [alpha-4-dihydroxybenzenepropanoic acid - 35]	−38%
N[C@@H](Cc1ccccc1)C(=O)O [Phenylalanine - 35, Phenylalanine]	12%
NC(CCCC(=O)O)C(=O)O (stereo not drawn) [alpha-aminoadipic acid - 9, alpha-aminoadipic acid]	33%
O=C(O)[C@@H]1C[C@@H](O)CN1 (relative stereo) [trans-4-hydroxyproline - 35, trans-4-hydroxyproline]	19%
O=C(O)CCCCC1CCSS1 (stereo not shown) [Lipoate - 9, Lipoate]	−2%
Nc1ncnc2c1ncn2[C@@H]1O[C@H](CO)[C@@H](O)[C@H]1O [Adenosine - 35, Adenosine]	16%
CC[C@H](C)[C@H](N)C(=O)O [Isoleucine - 9, Isoleucine]	18%
CNCC(=O)O [Sarcosine - 9, Sarcosine]	−4%
OCC(O)CO [Glycerol - 9, Glycerol]	7%
O=C(O)[C@H](O)[C@@H](O)[C@H](O)[C@H](O)CO [Gluconic acid - 9, Gluconic acid]	0%
N[C@@H](CCC(=O)O)C(=O)O [Glutamic acid - 9, Glutamic acid]	8%
Nc1nc2c(ncn2[C@H]2C[C@H](O)[C@@H](CO)O2)c(=O)[nH]1 [2-deoxyguanosine - 35, 2-deoxyguanosine]	8%
N[C@@H](CCCCN[C@@H](CCC(=O)O)C(=O)O)C(=O)O [Saccharopine - 35, Saccharopine]	−1%
CC(C)CCC[C@@H](C)[C@H]1CC[C@H]2[C@@H]3CC=C4C[C@@H](O)CC[C@]4(C)[C@H]3CC[C@]12C [Cholesterol - 9, Cholesterol]	5%

Same assay, conditions: CSF; ALS mean as compared to the control mean

Structure (SMILES)	% change in ALS
O=C(O)C(=O)O	8%
CC(=O)N[C@H](C(=O)O)C(C)C [N-acetyl-L-valine - 35, N-acetyl-L-valine]	4%
O=C(O)[C@@H]1CCCN1 [Praline - 35, Praline]	156%
N[C@@H](CO)C(=O)O [Serine - 9, Serine]	−11%
O=P(O)(O)OC(CO)CO	16%
OC[C@@H](O)[C@H](O)[C@@H](O)CO [Xylitol - 35, Xylitol]	8%
NC(=O)NCCC[C@H](N)C(=O)O	267%
Nc1ccn([C@@H]2O[C@H](CO)[C@@H](O)[C@H]2O)c(=O)n1 [Cytidine - 35, Cytidine]	−9%
CC(C)[C@H](N)C(=O)O [Valine - 9, Valine]	34%
NC(=O)NC1NC(=O)NC1=O (stereo not shown) [Allantoin - 35, Allantoin]	7%
O=C(O)/C=C/C(=O)O [Fumaric acid - 9, Fumaric acid]	7%
CCC(N)C(=O)O (stereo not shown) [2-amino-butyrate - 9, 2-amino-butyrate]	−65%
CC(O)C(=O)O (stereo not shown) [Metabolite - 3316 retired: lactate - 35]	17%
O=C(O)CC(O)(CC(=O)O)C(=O)O [Citric acid - 9, Citric acid]	12%
O=C(O)C(O)Cc1ccc(O)cc1 (stereo not drawn) [alpha-4-dihydroxybenzenepropanoic acid - 35]	−38%
N[C@@H](Cc1ccccc1)C(=O)O [Phenylalanine - 35, Phenylalanine]	12%
NC(CCCC(=O)O)C(=O)O (stereo not drawn) [alpha-aminoadipic acid - 9, alpha-aminoadipic acid]	33%
O=C(O)[C@@H]1C[C@@H](O)CN1 (relative stereo) [trans-4-hydroxyproline - 35, trans-4-hydroxyproline]	19%
O=C(O)CCCCC1CCSS1 (stereo not shown) [Lipoate - 9, Lipoate]	−2%
Nc1ncnc2c1ncn2[C@@H]1O[C@H](CO)[C@@H](O)[C@H]1O [Adenosine - 35, Adenosine]	16%
CC[C@H](C)[C@H](N)C(=O)O [Isoleucine - 9, Isoleucine]	18%
CNCC(=O)O [Sarcosine - 9, Sarcosine]	−4%
OCC(O)CO [Glycerol - 9, Glycerol]	7%
O=C(O)[C@H](O)[C@@H](O)[C@H](O)[C@H](O)CO [Gluconic acid - 9, Gluconic acid]	0%
N[C@@H](CCC(=O)O)C(=O)O [Glutamic acid - 9, Glutamic acid]	8%
Nc1nc2c(ncn2[C@H]2C[C@H](O)[C@@H](CO)O2)c(=O)[nH]1 [2-deoxyguanosine - 35, 2-deoxyguanosine]	8%
N[C@@H](CCCCN[C@@H](CCC(=O)O)C(=O)O)C(=O)O [Saccharopine - 35, Saccharopine]	−1%
CC(C)CCC[C@@H](C)[C@H]1CC[C@H]2[C@@H]3CC=C4C[C@@H](O)CC[C@]4(C)[C@H]3CC[C@]12C [Cholesterol - 9, Cholesterol]	5%

Same assay, conditions: CSF; mean in ALS samples as compared to control samples

Structure (SMILES)	Increase (+) or Decrease (−) in ALS
O=C(O)C(=O)O	+
CC(=O)N[C@H](C(=O)O)C(C)C [N-acetyl-L-valine - 35, N-acetyl-L-valine]	+
O=C(O)[C@@H]1CCCN1 [Praline - 35, Praline]	+
N[C@@H](CO)C(=O)O [Serine - 9, Serine]	−
O=P(O)(O)OC(CO)CO	+
OC[C@@H](O)[C@H](O)[C@@H](O)CO [Xylitol - 35, Xylitol]	+
NC(=O)NCCC[C@H](N)C(=O)O	+
Nc1ccn([C@@H]2O[C@H](CO)[C@@H](O)[C@H]2O)c(=O)n1 [Cytidine - 35, Cytidine]	−
CC(C)[C@H](N)C(=O)O [Valine - 9, Valine]	+
NC(=O)NC1NC(=O)NC1=O (stereo not shown) [Allantoin - 35, Allantoin]	+
O=C(O)/C=C/C(=O)O [Fumaric acid - 9, Fumaric acid]	+
CCC(N)C(=O)O (stereo not shown) [2-amino-butyrate - 9, 2-amino-butyrate]	−
CC(O)C(=O)O (stereo not shown) [Metabolite - 3316 retired: lactate - 35]	+
O=C(O)CC(O)(CC(=O)O)C(=O)O [Citric acid - 9, Citric acid]	+
O=C(O)C(O)Cc1ccc(O)cc1 (stereo not drawn) [alpha-4-dihydroxybenzenepropanoic acid - 35]	−
N[C@@H](Cc1ccccc1)C(=O)O [Phenylalanine - 35, Phenylalanine]	+
NC(CCCC(=O)O)C(=O)O (stereo not drawn) [alpha-aminoadipic acid - 9, alpha-aminoadipic acid]	+
O=C(O)[C@@H]1C[C@@H](O)CN1 (relative stereo) [trans-4-hydroxyproline - 35, trans-4-hydroxyproline]	+
O=C(O)CCCCC1CCSS1 (stereo not shown) [Lipoate - 9, Lipoate]	−
Nc1ncnc2c1ncn2[C@@H]1O[C@H](CO)[C@@H](O)[C@H]1O [Adenosine - 35, Adenosine]	+
CC[C@H](C)[C@H](N)C(=O)O [Isoleucine - 9, Isoleucine]	+
CNCC(=O)O [Sarcosine - 9, Sarcosine]	−
OCC(O)CO [Glycerol - 9, Glycerol]	+
N[C@@H](CCC(=O)O)C(=O)O [Glutamic acid - 9, Glutamic acid]	+
Nc1nc2c(ncn2[C@H]2C[C@H](O)[C@@H](CO)O2)c(=O)[nH]1 [2-deoxyguanosine - 35, 2-deoxyguanosine]	+
N[C@@H](CCCCN[C@@H](CCC(=O)O)C(=O)O)C(=O)O [Saccharopine - 35, Saccharopine]	−
CC(C)CCC[C@@H](C)[C@H]1CC[C@H]2[C@@H]3CC=C4C[C@@H](O)CC[C@]4(C)[C@H]3CC[C@]12C [Cholesterol - 9, Cholesterol]	+

Same assay, conditions: CSF; mean in ALS samples vs control samples; T-tests

Structure (SMILES)	Increase (+) or Decrease (−) in ALS
CC(=O)N[C@H](C(=O)O)C(C)C [N-acetyl-L-valine - 35, N-acetyl-L-valine]	+
O=C(O)[C@@H]1CCCN1 [Praline - 35, Praline]	+
N[C@@H](CO)C(=O)O [Serine - 9, Serine]	−
OC[C@@H](O)[C@H](O)[C@@H](O)CO [Xylitol - 35, Xylitol]	+
Nc1ccn([C@@H]2O[C@H](CO)[C@@H](O)[C@H]2O)c(=O)n1 [Cytidine - 35, Cytidine]	−
CC(C)[C@H](N)C(=O)O [Valine - 9, Valine]	+
NC(=O)NC1NC(=O)NC1=O (stereo not shown) [Allantoin - 35, Allantoin]	+
O=C(O)/C=C/C(=O)O [Fumaric acid - 9, Fumaric acid]	+
CCC(N)C(=O)O (stereo not shown) [2-amino-butyrate - 9, 2-amino-butyrate]	−
O=C(O)CC(O)(CC(=O)O)C(=O)O [Citric acid - 9, Citric acid]	+
O=C(O)C(O)Cc1ccc(O)cc1 (stereo not drawn) [alpha-4-dihydroxybenzenepropanoic acid - 35]	−
N[C@@H](Cc1ccccc1)C(=O)O [Phenylalanine - 35, Phenylalanine]	+
NC(=O)NCCC[C@H](N)C(=O)O [Citrulline]	+
NC(CCCC(=O)O)C(=O)O (stereo not drawn) [alpha-aminoadipic acid - 9, alpha-aminoadipic acid]	+
O=C(O)[C@@H]1C[C@@H](O)CN1 (relative stereo) [trans-4-hydroxyproline - 35, trans-4-hydroxyproline]	+
O=C(O)CCCCC1CCSS1 (stereo not shown) [Lipoate - 9, Lipoate]	−
Nc1ncnc2c1ncn2[C@@H]1O[C@H](CO)[C@@H](O)[C@H]1O [Adenosine - 35, Adenosine]	+
CC[C@H](C)[C@H](N)C(=O)O [Isoleucine - 9, Isoleucine]	+
CNCC(=O)O [Sarcosine - 9, Sarcosine]	−
OCC(O)CO [Glycerol - 9, Glycerol]	+
N[C@@H](CCC(=O)O)C(=O)O [Glutamic acid - 9, Glutamic acid]	+
Nc1nc2c(ncn2[C@H]2C[C@H](O)[C@@H](CO)O2)c(=O)[nH]1 [2-deoxyguanosine - 35, 2-deoxyguanosine]	+
N[C@@H](CCCCN[C@@H](CCC(=O)O)C(=O)O)C(=O)O [Saccharopine - 35, Saccharopine]	−
CC(C)CCC[C@@H](C)[C@H]1CC[C@H]2[C@@H]3CC=C4C[C@@H](O)CC[C@]4(C)[C@H]3CC[C@]12C [Cholesterol - 9, Cholesterol]	+
